Experimental data taken from article doi:10.1101/2020.05.30.124933.

Target: GST-WW: GST fusion construct encompassing the two WW domains of Hecw (636-834aa) (Drosophila melanogaster)
Test: affinity purification with mass spectrometry

- binding: binds
B1: Hrp48, endogenous in S2 cells (protein, UniProt P48809 1-421)
chain: MEEDERGKLFVGGLSWETTQENLSRYFCRFGDIIDCVVMKNNESGRSRGFGFVTFADPTNVNHVLQNGPHTLDGRTIDPKPCNPRTLQKPKKGGGYKVFLGGLPSNVTETDLRTFFNRYGKVTEVVIMYDQEKKKSRGFGFLSFEEESSVEHVTNERYINLNGKQVEIKKAEPRDGSGGQNSNNSTVGGAYGKLGNECSHWGPHHAPINMMQGQNGQMGGPPLNMPIGAPNMMPGYQGWGTSPQQQQYGYGNSGPGSYQGWGAPPGPQGPPPQWSNYAGPQQTQGYGGYDMYNSTSTGAPSGPSGGGSWNSWNMPPNSAGPTGAPGAGAGTATDMYSRAQAWATGGPSTTGPVGGMPRTGPGNSASKSGSEYDYGGYGSGYDYDYSNYVKQEGASNYGAGPRSAYGNDSSTQPPYATSQAV

Results are given in words; binding and its absence hold for the method and conditions named. In cells and extracts the contact can be indirect. A yes stands for co-enrichment or nearness to the bait. Other partners may have been found.
